Measurements taken from patent publication US20150037356A1 (AstraZeneca / MedImmune, published 2015).
No constants are given. Whether binding was seen depends on the method and setting. Some results given as binding are weak or reduced against the parent protein; the word gives no strength.

Experiments:
[1] = molecular target: T1, endogenous Siglec-15 on leukaemic cell lines (human) (UniProt Q6ZMC9); test: FACS surface staining of leukaemic cell lines
T1 sequence (looked up): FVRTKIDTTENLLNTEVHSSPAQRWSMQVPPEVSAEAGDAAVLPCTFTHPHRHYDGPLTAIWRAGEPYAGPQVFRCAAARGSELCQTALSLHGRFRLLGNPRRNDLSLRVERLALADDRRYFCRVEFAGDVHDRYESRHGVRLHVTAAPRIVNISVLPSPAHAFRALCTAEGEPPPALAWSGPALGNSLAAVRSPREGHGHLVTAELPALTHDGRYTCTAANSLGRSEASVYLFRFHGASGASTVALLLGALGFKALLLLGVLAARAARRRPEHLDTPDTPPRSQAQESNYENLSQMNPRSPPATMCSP

[2] = molecular target: T2, HA-tagged Siglec-15 extracellular domains in pDisplay construct (PDGFR transmembrane domain) on CHO cells (human) (UniProt Q6ZMC9+P09619); test: flow cytometry on CHO-pDisplay Siglec-15 cells
[3] = molecular target: T2, HA-tagged Siglec-15 extracellular domains in pDisplay construct (PDGFR transmembrane domain) on CHO cells (human); test: FACS on CHO-pDisplay Siglec-15 cells, mouse IgG1 format
[4] = molecular target: T1, endogenous Siglec-15 on leukaemic cell lines (human); test: FACS surface staining of K562 cells (endocytosis assay)
[5] = molecular target: T2, HA-tagged Siglec-15 extracellular domains in pDisplay construct (PDGFR transmembrane domain) on CHO cells (human); test: FACS surface staining over time at 37 C on CHO-pDisplay Siglec-15 cells

Measured: binding

B1: A9E8 monoclonal antibody (mouse IgG1 format) (antibody, V domains shown)
VH: QLQLQESGPGLVKPSETLSLTCAVSGASISNWWSWVRQPPGKGLEWIGEVHHSGVTTYKPSLKSRVTISVDNSKNQLSLKLTSVTAADTAVYYCAREFADDAFDIWGRGTMVTVSS
VL: SSELTQDPAVSVALGQTVRITCRGDSLRKYYASWYQQKPRQAPQLVIYHKNNRASGIPDRFSGSISGNTASLTITGAQAEDEAAYFCNSRDTSGNYLVFGGGTKVTVLG
notes: VH and VL from the phage scFv were cloned into a mouse IgG1 backbone and expressed as complete mouse IgG1; also called A9E8 antibody
binds: [1] | [2] | [3] | [4] | [5]
